In publication PMC10114496:
Results are given in words; binding and its absence hold for the method and conditions named. Binding seen in cells or lysates may run through a third protein. These calls come from enrichment with a bait or labelling near it, and not all partners need be listed.

Sequences of proteins named here, by UniProt entry; tags and fusion partners are left off.
UniProt Q9UER7: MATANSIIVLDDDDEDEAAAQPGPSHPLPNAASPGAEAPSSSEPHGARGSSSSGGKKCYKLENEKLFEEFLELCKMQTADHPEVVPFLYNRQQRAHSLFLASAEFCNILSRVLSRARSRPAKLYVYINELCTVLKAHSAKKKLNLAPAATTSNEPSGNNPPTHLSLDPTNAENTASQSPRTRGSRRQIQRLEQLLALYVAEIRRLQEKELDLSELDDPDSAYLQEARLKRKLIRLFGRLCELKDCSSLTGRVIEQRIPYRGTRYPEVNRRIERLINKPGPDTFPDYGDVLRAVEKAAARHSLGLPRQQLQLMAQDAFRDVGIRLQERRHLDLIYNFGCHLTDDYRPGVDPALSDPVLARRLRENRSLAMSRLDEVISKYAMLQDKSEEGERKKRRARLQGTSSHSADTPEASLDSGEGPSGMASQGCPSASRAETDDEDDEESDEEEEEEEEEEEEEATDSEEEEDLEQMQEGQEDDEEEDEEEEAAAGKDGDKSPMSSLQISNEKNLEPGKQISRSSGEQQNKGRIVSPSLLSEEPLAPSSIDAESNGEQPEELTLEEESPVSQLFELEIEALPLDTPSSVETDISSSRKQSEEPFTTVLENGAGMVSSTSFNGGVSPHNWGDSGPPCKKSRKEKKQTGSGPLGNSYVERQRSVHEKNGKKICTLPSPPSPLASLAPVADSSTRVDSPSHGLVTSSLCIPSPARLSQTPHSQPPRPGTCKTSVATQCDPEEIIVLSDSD
UniProt Q9NVP2: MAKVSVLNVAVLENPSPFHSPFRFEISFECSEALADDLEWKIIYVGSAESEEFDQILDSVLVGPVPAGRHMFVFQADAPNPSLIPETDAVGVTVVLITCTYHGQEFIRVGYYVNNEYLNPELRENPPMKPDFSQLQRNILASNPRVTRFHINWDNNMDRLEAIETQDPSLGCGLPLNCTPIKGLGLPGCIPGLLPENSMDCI
UniProt O43823: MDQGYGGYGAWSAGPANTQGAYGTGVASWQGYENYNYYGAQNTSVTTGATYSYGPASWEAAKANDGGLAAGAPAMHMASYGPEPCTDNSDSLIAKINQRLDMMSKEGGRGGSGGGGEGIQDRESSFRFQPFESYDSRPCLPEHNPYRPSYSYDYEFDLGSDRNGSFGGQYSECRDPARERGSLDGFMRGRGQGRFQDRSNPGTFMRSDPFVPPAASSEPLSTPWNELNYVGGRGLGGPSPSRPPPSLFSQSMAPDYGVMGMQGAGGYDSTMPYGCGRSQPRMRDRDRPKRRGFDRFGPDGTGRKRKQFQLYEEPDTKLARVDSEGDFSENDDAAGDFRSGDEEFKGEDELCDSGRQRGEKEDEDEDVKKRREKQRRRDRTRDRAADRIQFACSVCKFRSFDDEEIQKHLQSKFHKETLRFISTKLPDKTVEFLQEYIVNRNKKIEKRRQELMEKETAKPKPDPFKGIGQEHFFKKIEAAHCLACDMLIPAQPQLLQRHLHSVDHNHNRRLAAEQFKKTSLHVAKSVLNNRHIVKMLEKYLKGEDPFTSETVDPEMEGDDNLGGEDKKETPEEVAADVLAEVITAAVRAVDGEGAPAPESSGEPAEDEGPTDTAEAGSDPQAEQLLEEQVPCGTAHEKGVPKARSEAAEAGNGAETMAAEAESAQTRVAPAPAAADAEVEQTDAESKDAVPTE
UniProt P62136: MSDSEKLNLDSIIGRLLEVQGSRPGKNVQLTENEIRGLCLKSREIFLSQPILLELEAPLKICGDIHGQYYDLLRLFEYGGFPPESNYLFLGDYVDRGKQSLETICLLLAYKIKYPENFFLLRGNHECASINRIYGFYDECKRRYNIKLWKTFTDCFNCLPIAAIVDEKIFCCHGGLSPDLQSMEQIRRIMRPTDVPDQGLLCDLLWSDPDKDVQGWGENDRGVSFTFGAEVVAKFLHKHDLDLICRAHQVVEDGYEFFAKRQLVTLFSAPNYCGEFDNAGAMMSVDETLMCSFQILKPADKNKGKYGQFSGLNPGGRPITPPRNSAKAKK
UniProt P52701: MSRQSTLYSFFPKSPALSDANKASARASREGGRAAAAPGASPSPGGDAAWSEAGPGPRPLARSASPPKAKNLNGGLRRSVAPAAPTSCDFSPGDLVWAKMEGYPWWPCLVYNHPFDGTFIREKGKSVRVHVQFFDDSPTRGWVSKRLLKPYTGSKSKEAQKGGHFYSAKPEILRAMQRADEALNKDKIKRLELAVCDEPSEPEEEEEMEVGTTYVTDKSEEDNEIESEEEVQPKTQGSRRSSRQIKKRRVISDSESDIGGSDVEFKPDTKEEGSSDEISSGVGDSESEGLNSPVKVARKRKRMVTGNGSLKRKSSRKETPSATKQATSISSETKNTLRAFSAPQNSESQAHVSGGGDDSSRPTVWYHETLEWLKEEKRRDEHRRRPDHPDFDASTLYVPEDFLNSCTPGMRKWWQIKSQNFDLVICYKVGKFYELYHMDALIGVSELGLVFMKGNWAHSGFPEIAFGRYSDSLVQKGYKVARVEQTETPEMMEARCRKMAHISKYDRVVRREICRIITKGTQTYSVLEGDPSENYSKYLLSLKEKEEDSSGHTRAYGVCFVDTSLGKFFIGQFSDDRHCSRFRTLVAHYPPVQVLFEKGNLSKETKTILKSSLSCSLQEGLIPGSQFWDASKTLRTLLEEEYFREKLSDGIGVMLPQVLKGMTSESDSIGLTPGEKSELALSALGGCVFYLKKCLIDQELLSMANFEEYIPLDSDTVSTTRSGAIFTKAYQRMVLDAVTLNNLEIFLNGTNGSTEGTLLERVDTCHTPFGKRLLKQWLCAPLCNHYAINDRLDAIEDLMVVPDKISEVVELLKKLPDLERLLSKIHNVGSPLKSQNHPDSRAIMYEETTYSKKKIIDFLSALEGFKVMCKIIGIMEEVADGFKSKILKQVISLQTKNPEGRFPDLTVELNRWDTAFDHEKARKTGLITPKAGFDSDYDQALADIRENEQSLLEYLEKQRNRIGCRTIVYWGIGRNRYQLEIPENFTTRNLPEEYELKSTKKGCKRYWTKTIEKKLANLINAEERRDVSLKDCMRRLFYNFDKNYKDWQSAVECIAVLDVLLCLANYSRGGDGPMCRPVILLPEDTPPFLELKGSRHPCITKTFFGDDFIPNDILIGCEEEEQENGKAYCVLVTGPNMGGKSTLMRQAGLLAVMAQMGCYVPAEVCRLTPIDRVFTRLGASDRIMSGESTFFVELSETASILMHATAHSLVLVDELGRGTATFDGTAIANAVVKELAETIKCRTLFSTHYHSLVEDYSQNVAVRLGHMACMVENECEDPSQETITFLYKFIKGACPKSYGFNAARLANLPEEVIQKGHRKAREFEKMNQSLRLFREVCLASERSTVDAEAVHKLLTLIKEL
UniProt O00629: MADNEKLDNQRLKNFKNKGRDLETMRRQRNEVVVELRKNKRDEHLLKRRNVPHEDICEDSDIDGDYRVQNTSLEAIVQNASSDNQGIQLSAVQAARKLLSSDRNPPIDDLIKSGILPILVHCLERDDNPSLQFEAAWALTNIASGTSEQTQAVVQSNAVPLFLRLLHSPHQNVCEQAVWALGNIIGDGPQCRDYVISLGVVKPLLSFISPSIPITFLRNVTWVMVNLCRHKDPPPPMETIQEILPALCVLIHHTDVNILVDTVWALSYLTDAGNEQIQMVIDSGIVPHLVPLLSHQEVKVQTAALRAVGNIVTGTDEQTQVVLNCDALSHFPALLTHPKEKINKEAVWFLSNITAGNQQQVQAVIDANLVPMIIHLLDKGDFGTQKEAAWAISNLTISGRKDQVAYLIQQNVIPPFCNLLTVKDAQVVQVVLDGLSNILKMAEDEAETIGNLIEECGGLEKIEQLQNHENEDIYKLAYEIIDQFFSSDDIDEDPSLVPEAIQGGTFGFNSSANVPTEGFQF
UniProt Q9NPG3: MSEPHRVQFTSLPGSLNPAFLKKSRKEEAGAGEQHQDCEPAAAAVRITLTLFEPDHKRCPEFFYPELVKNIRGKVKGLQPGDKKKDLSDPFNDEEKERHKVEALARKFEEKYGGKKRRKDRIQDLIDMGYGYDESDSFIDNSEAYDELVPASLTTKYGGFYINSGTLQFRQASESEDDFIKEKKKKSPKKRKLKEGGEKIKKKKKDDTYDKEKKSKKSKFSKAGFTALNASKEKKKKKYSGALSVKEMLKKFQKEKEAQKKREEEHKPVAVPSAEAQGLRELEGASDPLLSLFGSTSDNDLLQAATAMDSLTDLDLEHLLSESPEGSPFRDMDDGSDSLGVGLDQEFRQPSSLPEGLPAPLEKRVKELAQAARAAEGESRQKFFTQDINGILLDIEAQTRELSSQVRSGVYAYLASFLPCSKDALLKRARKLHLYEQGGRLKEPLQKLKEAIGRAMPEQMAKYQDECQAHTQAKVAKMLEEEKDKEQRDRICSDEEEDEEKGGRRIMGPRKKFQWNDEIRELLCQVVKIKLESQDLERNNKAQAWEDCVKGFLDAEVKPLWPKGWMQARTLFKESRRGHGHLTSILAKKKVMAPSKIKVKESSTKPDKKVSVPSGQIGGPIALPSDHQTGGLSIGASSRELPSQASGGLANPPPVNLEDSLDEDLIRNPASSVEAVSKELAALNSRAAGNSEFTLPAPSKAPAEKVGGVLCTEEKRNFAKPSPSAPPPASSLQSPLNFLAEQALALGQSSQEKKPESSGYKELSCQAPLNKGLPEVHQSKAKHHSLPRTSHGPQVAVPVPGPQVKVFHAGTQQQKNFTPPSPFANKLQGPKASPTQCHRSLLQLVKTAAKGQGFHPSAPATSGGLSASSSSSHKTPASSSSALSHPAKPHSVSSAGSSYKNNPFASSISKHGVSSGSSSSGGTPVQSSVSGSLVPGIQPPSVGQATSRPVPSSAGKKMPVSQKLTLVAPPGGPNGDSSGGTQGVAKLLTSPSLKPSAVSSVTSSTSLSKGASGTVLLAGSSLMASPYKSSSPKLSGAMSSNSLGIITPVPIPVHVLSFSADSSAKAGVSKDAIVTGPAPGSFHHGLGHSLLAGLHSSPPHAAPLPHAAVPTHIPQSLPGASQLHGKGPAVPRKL
UniProt P62140: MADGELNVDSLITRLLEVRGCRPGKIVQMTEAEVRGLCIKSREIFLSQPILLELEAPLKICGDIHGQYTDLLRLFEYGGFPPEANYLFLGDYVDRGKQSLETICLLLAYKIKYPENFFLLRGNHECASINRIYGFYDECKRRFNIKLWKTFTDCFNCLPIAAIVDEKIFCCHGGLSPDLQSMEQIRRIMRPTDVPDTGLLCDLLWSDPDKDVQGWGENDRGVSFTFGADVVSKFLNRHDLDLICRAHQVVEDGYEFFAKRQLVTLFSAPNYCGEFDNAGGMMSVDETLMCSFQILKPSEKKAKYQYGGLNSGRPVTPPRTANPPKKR
UniProt Q9Y265: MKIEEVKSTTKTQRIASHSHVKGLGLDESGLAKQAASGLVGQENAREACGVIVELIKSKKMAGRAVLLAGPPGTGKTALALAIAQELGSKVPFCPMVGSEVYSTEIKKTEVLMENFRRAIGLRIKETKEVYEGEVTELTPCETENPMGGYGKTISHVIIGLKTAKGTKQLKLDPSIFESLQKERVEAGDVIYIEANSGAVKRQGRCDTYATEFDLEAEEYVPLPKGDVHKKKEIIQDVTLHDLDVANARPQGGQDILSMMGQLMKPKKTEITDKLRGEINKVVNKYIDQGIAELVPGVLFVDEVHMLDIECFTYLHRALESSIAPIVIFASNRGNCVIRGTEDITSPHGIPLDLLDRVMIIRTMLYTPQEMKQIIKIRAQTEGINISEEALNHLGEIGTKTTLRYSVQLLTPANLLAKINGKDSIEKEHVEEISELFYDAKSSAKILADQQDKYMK
UniProt Q13263: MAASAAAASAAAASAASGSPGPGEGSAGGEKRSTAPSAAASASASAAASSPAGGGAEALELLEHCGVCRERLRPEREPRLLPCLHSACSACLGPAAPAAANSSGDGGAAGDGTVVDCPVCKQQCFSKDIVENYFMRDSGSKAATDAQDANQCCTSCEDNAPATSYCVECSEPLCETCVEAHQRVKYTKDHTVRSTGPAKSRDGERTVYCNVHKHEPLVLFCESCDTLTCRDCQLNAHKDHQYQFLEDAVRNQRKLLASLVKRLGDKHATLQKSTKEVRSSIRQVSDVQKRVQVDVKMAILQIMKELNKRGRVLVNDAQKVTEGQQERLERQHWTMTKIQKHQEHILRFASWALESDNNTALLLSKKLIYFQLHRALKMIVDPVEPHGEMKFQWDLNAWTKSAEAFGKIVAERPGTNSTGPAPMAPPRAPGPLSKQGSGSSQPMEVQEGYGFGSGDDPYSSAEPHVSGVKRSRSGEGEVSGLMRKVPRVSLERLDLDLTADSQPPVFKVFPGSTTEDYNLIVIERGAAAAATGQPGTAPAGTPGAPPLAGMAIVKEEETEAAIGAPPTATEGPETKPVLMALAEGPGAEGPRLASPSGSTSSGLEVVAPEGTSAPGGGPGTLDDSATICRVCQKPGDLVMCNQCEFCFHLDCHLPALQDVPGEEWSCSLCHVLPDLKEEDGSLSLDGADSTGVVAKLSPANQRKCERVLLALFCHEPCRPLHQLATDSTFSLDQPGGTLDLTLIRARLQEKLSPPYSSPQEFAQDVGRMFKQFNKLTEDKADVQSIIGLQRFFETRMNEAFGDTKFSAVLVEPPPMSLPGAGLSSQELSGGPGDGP

Tests used:
Experiment in all cases: affinity purification with mass spectrometry; triple SILAC IP-MS: Strep-HA-tagged chaperone (WT, mutant, control cells) held on MagStrep type3 XT beads for 3 hrs at 4 °C from soluble HeLa S3 extracts (300 mM NaCl, 0.05 % Nonidet P40, 50 mM Tris.HCl pH 7.6); washes at 150 mM NaCl; eluted with BXT buffer
Strep-HA-DAXX-WT (human) = Strep-HA-DAXX-WT (human) (UniProt Q9UER7)
[1] = target: TwinStrep-HA-HJURP (HJURP-Strep-HA-WT) (human) (UniProt Q8NCD3)
[2] = target: Strep-HA-ASF1a-WT (human) (UniProt Q9Y294)
[3] = target: Strep-HA-ASF1b-WT (human) (UniProt Q9NVP2)

MCM2 (from UniProt P49736 1-904)
binding (Strep-HA-DAXX-WT (human)): binds

PRKDC (from UniProt P78527 1-4128)
binding [1]: binds

AKAP8 (from UniProt O43823 1-692)
binding [1]: binds

PP1A (from UniProt P62136 1-330)
binding [2]: binds

MSH6 (from UniProt P52701 1-1360)
binding [1]: binds

IMA3/KPNA4 (from UniProt O00629 1-521)
binding (Strep-HA-DAXX-WT (human)): binds

RIF1 (from UniProt Q5UIP0 1-2472)
binding [2]: binds

FXR1 (from UniProt P51114 1-621)
binding [2]: binds | binding [3]: binds

XRCC6 (from UniProt P12956 1-609)
binding [2]: binds

UBN1 (from UniProt Q9NPG3 1-1134)
binding [2]: binds | binding [3]: binds

PP1B (from UniProt P62140 1-327)
binding [2]: binds

HUWE1 (from UniProt Q7Z6Z7 1-4374)
binding (Strep-HA-DAXX-WT (human)): binds

FANCI (from UniProt Q9NVI1 1-1328)
binding [1]: binds

RUVB1 (from UniProt Q9Y265 1-456)
binding [1]: binds

TIF1B/TRIM28/KAP1 (from UniProt Q13263 1-835)
binding (Strep-HA-DAXX-WT (human)): binds

B1: MCM3 (protein, UniProt P25205 1-808)
chain: MAGTVVLDDVELREAQRDYLDFLDDEEDQGIYQSKVRELISDNQYRLIVNVNDLRRKNEKRANRLLNNAFEELVAFQRALKDFVASIDATYAKQYEEFYVGLEGSFGSKHVSPRTLTSCFLSCVVCVEGIVTKCSLVRPKVVRSVHYCPATKKTIERRYSDLTTLVAFPSSSVYPTKDEENNPLETEYGLSVYKDHQTITIQEMPEKAPAGQLPRSVDVILDDDLVDKAKPGDRVQVVGTYRCLPGKKGGYTSGTFRTVLIACNVKQMSKDAQPSFSAEDIAKIKKFSKTRSKDIFDQLAKSLAPSIHGHDYVKKAILCLLLGGVERDLENGSHIRGDINILLIGDPSVAKSQLLRYVLCTAPRAIPTTGRGSSGVGLTAAVTTDQETGERRLEAGAMVLADRGVVCIDEFDKMSDMDRTAIHEVMEQGRVTIAKAGIHARLNARCSVLAAANPVYGRYDQYKTPMENIGLQDSLLSRFDLLFIMLDQMDPEQDREISDHVLRMHRYRAPGEQDGDAMPLGSAVDILATDDPNFSQEDQQDTQIYEKHDNLLHGTKKKKEKMVSAAFMKKYIHVAKIIKPVLTQESATYIAEEYSRLRSQDSMSSDTARTSPVTARTLETLIRLATAHAKARMSKTVDLQDAEEAVELVQYAYFKKVLEKEKKRKKRSEDESETEDEEEKSQEDQEQKRKRRKTRQPDAKDGDSYDPYDFSDTEEEMPQVHTPKTADSQETKESQKVELSESRLKAFKVALLDVFREAHAQSIGMNRLTESINRDSEEPFSSVEIQAALSKMQDDNQVMVSEGIIFLI
binding (Strep-HA-DAXX-WT (human)): binds

B2: MCM5 (protein, UniProt P33992 1-734)
chain: MSGFDDPGIFYSDSFGGDAQADEGQARKSQLQRRFKEFLRQYRVGTDRTGFTFKYRDELKRHYNLGEYWIEVEMEDLASFDEDLADYLYKQPAEHLQLLEEAAKEVADEVTRPRPSGEEVLQDIQVMLKSDASPSSIRSLKSDMMSHLVKIPGIIIAASAVRAKATRISIQCRSCRNTLTNIAMRPGLEGYALPRKCNTDQAGRPKCPLDPYFIMPDKCKCVDFQTLKLQELPDAVPHGEMPRHMQLYCDRYLCDKVVPGNRVTIMGIYSIKKFGLTTSRGRDRVGVGIRSSYIRVLGIQVDTDGSGRSFAGAVSPQEEEEFRRLAALPNVYEVISKSIAPSIFGGTDMKKAIACLLFGGSRKRLPDGLTRRGDINLLMLGDPGTAKSQLLKFVEKCSPIGVYTSGKGSSAAGLTASVMRDPSSRNFIMEGGAMVLADGGVVCIDEFDKMREDDRVAIHEAMEQQTISIAKAGITTTLNSRCSVLAAANSVFGRWDETKGEDNIDFMPTILSRFDMIFIVKDEHNEERDVMLAKHVITLHVSALTQTQAVEGEIDLAKLKKFIAYCRVKCGPRLSAEAAEKLKNRYIIMRSGARQHERDSDRRSSIPITVRQLEAIVRIAEALSKMKLQPFATEADVEEALRLFQVSTLDAALSGTLSGVEGFTSQEDQEMLSRIEKQLKRRFAIGSQVSEHSIIKDFTKQKYPEHAIHKVLQLMLRRGEIQHRMQRKVLYRLK
binding (Strep-HA-DAXX-WT (human)): binds

B3: MCM6 (protein, UniProt Q14566 1-821)
chain: MDLAAAAEPGAGSQHLEVRDEVAEKCQKLFLDFLEEFQSSDGEIKYLQLAEELIRPERNTLVVSFVDLEQFNQQLSTTIQEEFYRVYPYLCRALKTFVKDRKEIPLAKDFYVAFQDLPTRHKIRELTSSRIGLLTRISGQVVRTHPVHPELVSGTFLCLDCQTVIRDVEQQFKYTQPNICRNPVCANRRRFLLDTNKSRFVDFQKVRIQETQAELPRGSIPRSLEVILRAEAVESAQAGDKCDFTGTLIVVPDVSKLSTPGARAETNSRVSGVDGYETEGIRGLRALGVRDLSYRLVFLACCVAPTNPRFGGKELRDEEQTAESIKNQMTVKEWEKVFEMSQDKNLYHNLCTSLFPTIHGNDEVKRGVLLMLFGGVPKTTGEGTSLRGDINVCIVGDPSTAKSQFLKHVEEFSPRAVYTSGKASSAAGLTAAVVRDEESHEFVIEAGALMLADNGVCCIDEFDKMDVRDQVAIHEAMEQQTISITKAGVKATLNARTSILAAANPISGHYDRSKSLKQNINLSAPIMSRFDLFFILVDECNEVTDYAIARRIVDLHSRIEESIDRVYSLDDIRRYLLFARQFKPKISKESEDFIVEQYKHLRQRDGSGVTKSSWRITVRQLESMIRLSEAMARMHCCDEVQPKHVKEAFRLLNKSIIRVETPDVNLDQEEEIQMEVDEGAGGINGHADSPAPVNGINGYNEDINQESAPKASLRLGFSEYCRISNLIVLHLRKVEEEEDESALKRSELVNWYLKEIESEIDSEEELINKKRIIEKVIHRLTHYDHVLIELTQAGLKGSTEGSESYEEDPYLVVNPNYLLED
binding (Strep-HA-DAXX-WT (human)): binds

B4: SAP18 (protein, UniProt O00422 1-153)
chain: MAVESRVTQEEIKKEPEKPIDREKTCPLLLRVFTTNNGRHHRMDEFSRGNVPSSELQIYTWMDATLKELTSLVKEVYPEARKKGTHFNFAIVFTDVKRPGYRVKEIGSTMSGRKGTDDSMTLQSQKFQIGDYLDIAITPPNRAPPPSGRMRPY
binding (Strep-HA-DAXX-WT (human)): binds

B5: RNPS1 (protein, UniProt Q15287 1-305)
chain: MDLSGVKKKSLLGVKENNKKSSTRAPSPTKRKDRSDEKSKDRSKDKGATKESSEKDRGRDKTRKRRSASSGSSSTRSRSSSTSSSGSSTSTGSSSGSSSSSASSRSGSSSTSRSSSSSSSSGSPSPSRRRHDNRRRSRSKSKPPKRDEKERKRRSPSPKPTKVHIGRLTRNVTKDHIMEIFSTYGKIKMIDMPVERMHPHLSKGYAYVEFENPDEAEKALKHMDGGQIDGQEITATAVLAPWPRPPPRRFSPPRRMLPPPPMWRRSPPRMRRRSRSPRRRSPVRRRSRSPGRRRHRSRSSSNSSR
binding (Strep-HA-DAXX-WT (human)): binds

B6: ACINU (protein, UniProt Q9UKV3 1-1341)
chain: MWRRKHPRTSGGTRGVLSGNRGVEYGSGRGHLGTFEGRWRKLPKMPEAVGTDPSTSRKMAELEEVTLDGKPLQALRVTDLKAALEQRGLAKSGQKSALVKRLKGALMLENLQKHSTPHAAFQPNSQIGEEMSQNSFIKQYLEKQQELLRQRLEREAREAAELEEASAESEDEMIHPEGVASLLPPDFQSSLERPELELSRHSPRKSSSISEEKGDSDDEKPRKGERRSSRVRQARAAKLSEGSQPAEEEEDQETPSRNLRVRADRNLKTEEEEEEEEEEEEDDEEEEGDDEGQKSREAPILKEFKEEGEEIPRVKPEEMMDERPKTRSQEQEVLERGGRFTRSQEEARKSHLARQQQEKEMKTTSPLEEEEREIKSSQGLKEKSKSPSPPRLTEDRKKASLVALPEQTASEEETPPPLLTKEASSPPPHPQLHSEEEIEPMEGPAPAVLIQLSPPNTDADTRELLVSQHTVQLVGGLSPLSSPSDTKAESPAEKVPEESVLPLVQKSTLADYSAQKDLEPESDRSAQPLPLKIEELALAKGITEECLKQPSLEQKEGRRASHTLLPSHRLKQSADSSSSRSSSSSSSSSRSRSRSPDSSGSRSHSPLRSKQRDVAQARTHANPRGRPKMGSRSTSESRSRSRSRSRSASSNSRKSLSPGVSRDSSTSYTETKDPSSGQEVATPPVPQLQVCEPKERTSTSSSSVQARRLSQPESAEKHVTQRLQPERGSPKKCEAEEAEPPAATQPQTSETQTSHLPESERIHHTVEEKEEVTMDTSENRPENDVPEPPMPIADQVSNDDRPEGSVEDEEKKESSLPKSFKRKISVVSATKGVPAGNSDTEGGQPGRKRRWGASTATTQKKPSISITTESLKSLIPDIKPLAGQEAVVDLHADDSRISEDETERNGDDGTHDKGLKICRTVTQVVPAEGQENGQREEEEEEKEPEAEPPVPPQVSVEVALPPPAEHEVKKVTLGDTLTRRSISQQKSGVSITIDDPVRTAQVPSPPRGKISNIVHISNLVRPFTLGQLKELLGRTGTLVEEAFWIDKIKSHCFVTYSTVEEAVATRTALHGVKWPQSNPKFLCADYAEQDELDYHRGLLVDRPSETKTEEQGIPRPLHPPPPPPVQPPQHPRAEQREQERAVREQWAEREREMERRERTRSEREWDRDKVREGPRSRSRSRDRRRKERAKSKEKKSEKKEKAQEEPPAKLLDDLFRKTKAAPCIYWLPLTDSQIVQKEAERAERAKEREKRRKEQEEEEQKEREKEAERERNRQLEREKRREHSRERDRERERERERDRGDRDRDRERDRERGRERDRRDTKRHSRSRSRSTPVRDRGGRR
binding (Strep-HA-DAXX-WT (human)): binds

B7: TRIP13 (protein, UniProt Q15645 1-432)
chain: MDEAVGDLKQALPCVAESPTVHVEVHQRGSSTAKKEDINLSVRKLLNRHNIVFGDYTWTEFDEPFLTRNVQSVSIIDTELKVKDSQPIDLSACTVALHIFQLNEDGPSSENLEEETENIIAANHWVLPAAEFHGLWDSLVYDVEVKSHLLDYVMTTLLFSDKNVNSNLITWNRVVLLHGPPGTGKTSLCKALAQKLTIRLSSRYRYGQLIEINSHSLFSKWFSESGKLVTKMFQKIQDLIDDKDALVFVLIDEVESLTAARNACRAGTEPSDAIRVVNAVLTQIDQIKRHSNVVILTTSNITEKIDVAFVDRADIKQYIGPPSAAAIFKIYLSCLEELMKCQIIYPRQQLLTLRELEMIGFIENNVSKLSLLLNDISRKSEGLSGRVLRKLPFLAHALYVQAPTVTIEGFLQALSLAVDKQFEERKKLAAYI
binding [1]: binds
